## Primary screen of a compound library

The filed quantity is “Percent Effect” (%). How 0% and 100% were set is not recorded. Most values in the screen are low, and negative values occur. The compounds are a random part of those screened.

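Growth of Mycobacterium tuberculosis over 3 days (7H9 medium with glucose and tyloxapol); the read-out is not stated. Tested at 500 µM. The record gives no direction; compounds that gave an IC50 in retests scored well above the rest, so higher reads as more growth inhibition. Size under these conditions: about 18,000 compounds, about 1,400 of them at 50% or above in at least one test.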

| structure | percent effect |
|---|---|
| `N#CCCCN1CCCC1C(=O)N1CCSCC1` (centres unmarked) | -13.3 |
| `Cn1c(C(=O)N2CCCC2CO)cc2ccccc21` (centres unmarked) | 8.422 |
| `O=C(c1cc(Br)c[nH]1)N1CCN2CCCCC2C1` (centres unmarked) | 63.95 |
| `Cc1cnccc1CNC(=O)CN1CCC(N(C)C)C1` (centres unmarked) | -5.13 |
| `CCC(C)NC(=O)Nc1cccc(C(=O)NC)c1` (centres unmarked) | -2.738 |
| `CS(=O)(=O)c1cccc(CN)c1` | 20.5 |
| `Cc1ccnc(NCCOCCS(C)(=O)=O)c1` | -7.594 |
| `Cc1nccn1CCCN(C)CC1COCCO1` (centres unmarked) | -12.81 |
| `Cc1cnc(CN2CC3(CCOC3)CCC2=O)cn1` (centres unmarked) | 15.01 |
| `CCCNC(=O)CN1CCC(c2nc(C)no2)CC1` | 7.015 |
| `CN(C)S(=O)(=O)c1csc(C(=O)N2CCOCC2)c1` | 9.045 |
| `Cc1ccccc1CNC(=O)c1ccn(C)c(=O)c1` | 18.16 |
| `CC(C)N1CCN(C2CCNCC2)CC1` | 1.279 |
| `O=C(CSCCO)Nc1ncc(-c2ccccc2)s1` | 71.05 |
| `CC(c1ccccn1)N1CCN(Cc2csnn2)CC1` (centres unmarked) | 8.427 |
| `CSCc1ccc(C(=O)NC(C)Cn2cncn2)o1` (centres unmarked) | 13.16 |
| `O=C(Cc1cccc(O)c1)NCCCn1cncn1` | 3.247 |
| `Cc1nc(C(N)=O)c[nH]1` | 0.9437 |
| `CC(C)n1cc(C(=O)N2C[C@@H]3CCCN[C@@H]3C2)cn1` | -16.42 |

The values are deposited in ChEMBL (CHEMBL3988442, “University of Dundee, Small-Polar-MMV Screening Library” (2021)).